Out of some 410,000 compounds screened, about 2,000 (0.49%) were called active. Inconclusive results, whose numbers are uncertain, are shown with a selection of clear calls. The call rests on the fitted dose curve; tested in HEK293 reporter line. Potencies beside an inconclusive call are fits to weak or partial responses and may not hold up.
Assay: qHTS Assay for Foot and Mouth Disease Virus Antivirals: Primary Screen against the MLPCN compound library; further: nearly all actives have a fitted effect of over 55% in size
Conditions: FMDV antiviral cell-based qHTS; series mostly up to 57.9 µM
Potency means the concentration at half of the fitted maximal effect.

Structure (SMILES)	Potency
Cc1ccc(NC(=O)/C(Cl)=C\c2ccccc2)cc1	inconclusive: 3.16 µM [inhibitor, full curve]
COc1cc(OC)cc(C(=O)Nc2ccc(C(=O)Nc3ccccc3OC)cc2)c1	inconclusive: 35.5 µM [inhibitor, single point]
Nc1c(C(=O)NCCN2CCOCC2)c2nc3ccccc3nc2n1-c1ccccc1	inconclusive: 14.1 µM [inhibitor, partial curve, poor fit]
c1ccc(N2CCN(c3nnc(Cc4cccnc4)c4ccccc34)CC2)nc1	inconclusive: 10 µM [inhibitor, partial curve, poor fit]
Cc1ccc(C(=O)NCCSc2c(C)[nH]c3ccccc23)cc1[N+](=O)[O-]	inconclusive: 35.5 µM [inhibitor, partial curve, poor fit]
Cc1ccc(C)c(N2CCN(C(=O)c3cnn(-c4ccccc4Cl)c3C3CCN(C(=O)OC(C)(C)C)CC3)CC2)c1	inactive
Cc1ccc(C(=O)O/N=C(\N)c2ccccc2)c(Cl)c1	inconclusive: 12.6 µM [inhibitor, partial curve, poor fit]
O=C(O)c1cccc(N2C(=O)/C(=C/c3ccc([N+](=O)[O-])cc3)C=C2c2ccccc2)c1	inconclusive: 12.6 µM [inhibitor, partial curve, poor fit]
Cc1cc(C)c(C#N)c(N2CCN(C(=O)C3COc4ccccc4O3)CC2)n1 (stereo unspecified)	inconclusive: 14.1 µM [inhibitor, partial curve, poor fit]
COc1ccc(-c2cc(C(=O)N3CCN(c4ccccc4)CC3)no2)cc1	inconclusive: 39.8 µM [inhibitor, single point]
Cc1ccc(NC(=O)CSc2ccc(-c3cccnc3)nn2)cc1Cl	inconclusive: 6.31 µM [inhibitor, partial curve, poor fit]
Cc1ccc(-c2cnc3ccccc3n2)cc1C	inconclusive: 28.2 µM [inhibitor, single point]
COc1cccc(/C=C2/CCC(CN(C)C)C2=O)c1 (stereo unspecified)	inconclusive: 25.1 µM [inhibitor, partial curve, poor fit]
Cc1nn(Cc2ccc(Cl)c(Cl)c2)c(C)c1NC(=O)c1sc2ccccc2c1Cl	inconclusive: 31.6 µM [inhibitor, partial curve, poor fit]
Cc1ccc([N+](=O)[O-])cc1N=Nc1c(-c2ccc([N+](=O)[O-])cc2)[nH]n(C(N)=S)c1=O	inconclusive: 2.51 µM [inhibitor, full curve, poor fit]
CC1(C)Cc2c(sc3nc(-c4cccs4)n(N)c(=O)c23)CO1	inconclusive: 28.2 µM [inhibitor, single point]

Reformatted: 2 of the compounds above

| Structure (SMILES) | Potency |
| --- | --- |
| COc1ccc(-c2cc(C(=O)N3CCN(c4ccccc4)CC3)no2)cc1 | inconclusive: 39.8 µM [inhibitor, single point] |
| Cc1ccc(NC(=O)CSc2ccc(-c3cccnc3)nn2)cc1Cl | inconclusive: 6.31 µM [inhibitor, partial curve, poor fit] |

— PubChem BioAssay AID1347131 (National Center for Advancing Translational Sciences (NCATS), 2019)
